Test results reported in EP4585606A1, “OLIGOPEPTIDE AND USE AND COMPOSITION THEREOF” (Buddhist Tzu Chi Medical Foundation, priority 2022, dated 2025).
Values joined by “and” are separate entries in the source; they are usually repeats but may differ in a detail not shown here. Equal values may be shown once. Part of at least one peptide drawing is inferred or uncertain, most often the ends. Residues, ends and D or L forms follow the SMILES beside them. No end group written: not given here.

Key:
Format in all cases: cell-based
[1] = tested on: human osteoblastic cells hFOB1.19; assay: proliferation of osteoblastic cells (manual cell count); settings: for number of cells was increased by: hFOB1.19, 24 hours; for best work concentrations: hFOB1.19 proliferation, 24 hours administration
[2] = tested on: human osteoblastic cells hFOB1.19; assay: quantitation of calcific nodules (Von Kossa staining, Image J); settings: hFOB1.19, 0.45 M oligopeptide for 21 days; for Number of nodules, Avg. Number: Control 4.0±0; for Area of nodules, Avg. Area: Control 15432; for Nodule density, Avg. Density: Control 1796078; for Area of nodules, Folds / Nodule density, Folds / Number of nodules, Folds: relative to Control 1.0
[3] = tested on: human cartilage cells C20A4; assay: proliferation of cartilage cells (manual cell count); settings: C20A4, 24 hours; for increased the numbers of cartilage cells C20A4 by: at the concentration of highest effect (TSKYR 0.9 µM, TSKY 1.8 µM, TSK 0.45 µM, YR 1.8 µM)
[4] = tested on: human osteoblastic cells hFOB1.19; assay: alkaline phosphatase (ALP) activity, TRACP & ALP detection kit; settings: hFOB1.19, 0.45 µM oligopeptide, 3.6µM CaCl2, 2 days

Molecule	number of cells was increased by ([1]; with 0.1 µM CaCl2)	best work concentrations [1]	Number of nodules, Avg. Number [2]	Area of nodules, Avg. Area [2]	Nodule density, Avg. Density [2]	Area of nodules, Folds [2]	Nodule density, Folds [2]	Number of nodules, Folds [2]	concentration of highest stimulatory effect on proliferation [3]	increased the numbers of cartilage cells C20A4 by [3]	ALP activities in the osteoblastic cells increased by [4]	number of cells was increased by ([1]; with 3.6 µM CaCl2)	number of cells was increased by ([1]; with 0.2 µM CaCl2)
C[C@@H](O)[C@H](N)C(=O)N[C@@H](CO)C(=O)N[C@@H](CCCCN)C(=O)O [TSK, Thr-Ser-Lys] (H-Thr-Ser-Lys-OH)	16.2%	0.45 µM	9.5±0.7	487194 Arbitrary Unit (AU)	99092606 Arbitrary Unit (AU)	31.6 folds	55.2 folds	2.4 folds and 2.4±0.2 folds	0.45 µM	47.5%	10.5%		
C[C@@H](O)[C@H](N)C(=O)N[C@@H](CO)C(=O)N[C@@H](CCCCN)C(=O)N[C@@H](Cc1ccc(O)cc1)C(=O)O [TSKY, Thr-Ser-Lys-Tyr] (H-TSKY-OH)		0.6 µM	9.0±1.4	17276 Arbitrary Unit (AU)	2487120 Arbitrary Unit (AU)	1.1 folds	1.4 folds	2.3 folds and 2.3±0.4 folds	1.8 µM	18.0%	3.8%	9.5%	
N=C(N)NCCC[C@H](NC(=O)[C@@H](N)Cc1ccc(O)cc1)C(=O)O [YR, Tyr-Arg]		0.45 µM	20.5±0.7	17389 Arbitrary Unit (AU)	1950350 Arbitrary Unit (AU)	1.1 folds	1.1 folds	5.1 folds and 5.1±0.2 folds	1.8 µM	27.9%	5.2%	33.6%	
TSKYR [TSKYR, Thr-Ser-Lys-Tyr-Arg]		0.9 µM	12.5±0.7	19647 Arbitrary Unit (AU)	3130812 Arbitrary Unit (AU)	1.3 folds	1.7 folds	3.1 folds and 3.1± 0.2 folds	0.9 µM	17.2%			29.1%
